Source: the RNAGym collection of RNA variant scans (doi:10.1126/science.aae0568)
Variants at the background level are over-represented here.

B1: tRNA (parent)
chain: GUUCCGUUGGCGUAAUGGUAACGCGUCUCCCUCCUAAGGAGAAGACUGCGGGUUCGAGUCCCGUACGGAACG

Variants of: B1
Assay: yeast fitness relative to wild type (ratio to wild type); higher = fitter; tRNA-Arg(CCU), competitive growth, 37 C, YPD
Outline: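 A pool of Saccharomyces cerevisiae strains, each with a tRNA-Arg(CCU) gene variant at the native genomic locus, was competed in YPD at 37°C for 24 hours across six parallel replicates. The variants had been chemically synthesised at a 3% per-site mutation rate over 69 sites, and gene amplicons before and after competition were read by 100-nucleotide paired-end sequencing. Darwinian fitness relative to wild type rested on changes in genotype frequencies. Genotypes required ≥ 100 starting reads, and estimates < 0.5 were set to 0.5.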

GUUCAGUCGGCGUAAUGGUAGCGCGUCUCCCUCCUAAGGAGAAGACUGCGGGUGCGAGUCCCGUACGGAACG and GUUCCGUUGGCGUAAUGGUAACGCGUCUCCCUCCUAAGGAAAAGCCUGCGGGUUCGAGUCCCGUUCGGCACG cannot be ordered by yeast fitness: no more than 0.5 for the first, no more than 0.5 for the second.

GUUGCGCUGGCGUAAUGGUAACGCGUAUCCCUCCUAAGGAGAAGACUGCGGGUUCGAGUCCCGUACGGAUCG and GUUCCGUUGGCGUAAUGGUAACGGGUCUCCCUCCUAAGGAGAAGACUGCGGGUGCGAGUCCCGUACGGAGCG cannot be ordered by yeast fitness: no more than 0.5 for the first, no more than 0.5 for the second.

GUUACGUUGGUGUCAUGGUAACGCGUCUCCCUCCUAAGGAAAAGACUCCGGGUUAGAGUCCCGUCCGGAACG and GUUCCGUUGGCGUAAUGGUAACGCGUUUCCCUCCUAAGGAGAAGACUGCGGGUUCGUGUCCAGUACGGAACG cannot be ordered by yeast fitness: no more than 0.5 for the first, no more than 0.5 for the second.

GUUCCGUUGGCGUAAUCGUAACGCGUCUCCCUCCUAUGGAGAAGACUGCGGGUUCGAGUCCCGUACGGAACG and GUUCCGUUGGCGUAAUGGUAACGCGUCGCCCUCCUAAGGAGAAGGCUGCGCGUUCGAGUCCCGUACGGAGCG cannot be ordered by yeast fitness: no more than 0.5 for the first, no more than 0.5 for the second.

Compared with GUUCCGUUGGCAUACUGGUAACGCGUCUCCCUCCUAAGGAGAAGACUGCGGGUUCGACUCCCGUACGGAACG, GUUCCGUUGGCGUAAUGGUAACGCGUCUCCCUCCUACGCAGAAGACUGCGGGUUUGAGUCACGUACGGAACG is higher in yeast fitness: no more than 0.5 for the first, 0.532 for the second.

Going from GUUUCGUUGGCGUAAUGGUAACGCGUCUCCCUCCUAACGAGAAGACUGCGGGUUCGAGUCCCGUGCGGAACG to GUUCAGUUGGCGUAAUGGUUACGCGUCUCCCUCCUAAGGAAAAGACUGCGGGUUCGAGUCCCGUACGGAGCG, the yeast fitness falls from 0.621 to no more than 0.5.

First: GUUCCGUUGGCGUAAUGGUAACGCGUCCCCCUCCUAAGAAGAAGACUGCGCGUUCGAGUCCAGUACGGAUCG
Second: GUUCUGUUGGCGUAAUGGUAGCGCGUCUCCCUCCUAAGGAGUAGACUGCGGGUUCGAAUCCCGUACGGAACG
The yeast fitness of the first is lower: no more than 0.5 for the first, 1.02 for the second.

GUUCCGUUGGCGUAAUGGUAACGCGUCUCUCUCCUAAGGAGGAGACUGCGGGUUCGAAUCCCGUACGGCACG and GUUCCGUUGGCGUAAUGGUAACGCGUCUCCCUCCUAAGGAGUAGACUGCGGGUUUGAGCCCCAUCCGGAACG cannot be ordered by yeast fitness: no more than 0.5 for the first, no more than 0.5 for the second.

GUUUCGUUGGCGUAAUGGUAACGCGUCUCCCUCCUUAGGAGAAGACUGCGGGUUCGAGUCCUGUACGGAACG and GUUCCGUUGGCGUAAUGGUAACGCGUCAUCCUCCUACGGAGAAGACUGCGGGUUCGAGUCCCGCACGGAACG cannot be ordered by yeast fitness: no more than 0.5 for the first, no more than 0.5 for the second.

Going from GUUCCGUUGGCGUAAUGGUAACGCGUCUCCCUCCUAAGGAGAAGACUGAGGGUUGGAGUCCCGUACGGAACG to GUUCCGUUGGCGUAAUGGUAACGCGUCUCCCUCCUAAGGGGAAGACUGCGGGUUCGAGUCCCGUACGAAACG, the yeast fitness rises from no more than 0.5 to 0.953.

GUUCAGUUGGCGUAAUGGUAACGCGUCUCCCUCCUAAGAAGAAGACAGCGGGUUUGAGUCCCGUACAGGACG and GGUCCGUUGGCGUAAUGGUAACGCGUCUCCUUCCUAAGGAGAAGACUGCGGGUGCGAGUCCCGUACGGAACG cannot be ordered by yeast fitness: no more than 0.5 for the first, no more than 0.5 for the second.

GUACCGUUGACGUAAUGGUAACGCCUCUCCCUCCUAAGGAGAAGACUGCGGGUUCGAGUACCGUACGGAACG and GUUACGUUGGCGUAAUGGUAACGCGUCUCCCUCAUAAGGAGACGAUUGCGGGUUCGAGUCCCGUACGGAACG cannot be ordered by yeast fitness: no more than 0.5 for the first, no more than 0.5 for the second.

GUUCCGUUGGCGUCAUGGUAACGCGUCUCCCUCCUAAGGAGAAGGCUGCGGGUUCGGGUCCCGUACGGAACG and GUUCCGUUGGCGUAAUGGUAAGGCGUCUCCCUCCUAAGGAGAAGACUGCGAGUUCGAGUCCCGUACAGAACG cannot be ordered by yeast fitness: no more than 0.5 for the first, no more than 0.5 for the second.

GUUCCGUUGGCGUAAUGGUAACGCGUCACCCUCCUAAGGAGAAGACGGCGGGUUCGAGUCCCGUCCGGAUCG and GUUCCGUUAGCGUAAUGGUAACACGUCUCCCUCCUAAGCAGAAGACUGCGGGUUCGAGUCCGGCACGGAACG cannot be ordered by yeast fitness: no more than 0.5 for the first, no more than 0.5 for the second.

GUUCUGUUGGCGUAAUGGUAACGCGUGUCCCUGCUAAGGAGCAGACUGCGGGUUCGAGUCCCGUACGGAACG and GUUCCGUUGGUGUAAUGGUAACGCGUUUCCCUCCUAACGUGAAGGCUGCGGAUUCGAGUCCCGUCCGGAACG cannot be ordered by yeast fitness: no more than 0.5 for the first, no more than 0.5 for the second.

Going from GUAUUGUUGGCGUAAUGGUAACGCGUCUCCCUCCUAAGGAGAAGACUCAGGGUUCGAGUCCCGUACCGAUCG to GAUCCGUUGGCGUAAUGGUAACGCGUCUCCUUCGUAAGGAGAAGACUGAAGGUUCGAGUCCCGUACGGAACG, the yeast fitness falls from 0.663 to no more than 0.5.

GCUCCGUUGGCGUAAUGGUAUCGCGUCUUCCUCCUAAGAAGAAGACUGCGCGUUCGAGUUCCGUAGGGAACG and GUUCCGUUGGCGUAAUGGUAACGCGUCUCUCUCCUAAGGAGAAGACUGCCGCUACGAGUUCCGUACGGAACG cannot be ordered by yeast fitness: no more than 0.5 for the first, no more than 0.5 for the second.

GUUCCGUUAGAGUAAUGGUUACGCGUCUGCCUCCUAAGGAGAAGACUGCGGGUUCGACUCCCGUACGGAACG and GAUUCGUUGGCGUAAUGGUAACGCGUCUGCCUGCUAAGGAGAAGACUGCGGCUUCGAGUCCCGUACGGAACG cannot be ordered by yeast fitness: no more than 0.5 for the first, no more than 0.5 for the second.

GUUCAGUUGGCGUUAUGGUAACGCGUCUCCCUCCUAAGGAGAAGACUGCGGGAUCGAGUCCCGUACGGAACG and GUUCCGUUGGCGUAUUGGUAACGCGUCUCCCUCCUAAGGAGAAGACUGCGGGUUCGAGUCUGGUACGGUACG cannot be ordered by yeast fitness: no more than 0.5 for the first, no more than 0.5 for the second.
